Reference: article PMC4666396
These are yes or no findings as the source states them, for the method shown. Binding seen in cells or lysates may run through a third protein. A yes stands for co-enrichment or nearness to the bait. Other partners may have been found.

Target: T1, Splicing factor 1 (SF1) (human (endogenous in HeLa)), Q15637
T1 chain: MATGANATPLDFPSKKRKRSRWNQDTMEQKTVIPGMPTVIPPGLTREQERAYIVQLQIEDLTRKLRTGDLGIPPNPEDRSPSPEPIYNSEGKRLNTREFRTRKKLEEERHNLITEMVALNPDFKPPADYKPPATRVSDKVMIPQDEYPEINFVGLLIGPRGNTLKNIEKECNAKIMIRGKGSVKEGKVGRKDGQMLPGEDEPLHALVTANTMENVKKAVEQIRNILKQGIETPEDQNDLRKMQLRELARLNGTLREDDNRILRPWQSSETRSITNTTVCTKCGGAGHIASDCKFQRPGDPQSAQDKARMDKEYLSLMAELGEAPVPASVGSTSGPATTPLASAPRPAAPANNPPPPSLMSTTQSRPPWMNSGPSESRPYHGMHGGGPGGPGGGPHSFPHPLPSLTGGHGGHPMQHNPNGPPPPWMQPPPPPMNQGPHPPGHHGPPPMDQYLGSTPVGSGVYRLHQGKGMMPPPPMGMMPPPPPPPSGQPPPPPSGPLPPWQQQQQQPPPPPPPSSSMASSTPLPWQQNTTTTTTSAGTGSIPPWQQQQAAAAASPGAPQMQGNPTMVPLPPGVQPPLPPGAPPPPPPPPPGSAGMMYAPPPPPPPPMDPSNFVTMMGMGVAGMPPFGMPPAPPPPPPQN
Experiment: affinity purification with mass spectrometry; anti-SF1 on Protein G Sepharose; HeLa cell nuclear extract without or with 0.3 mg/ml RNase A; IP buffer 50 mM Tris-HCl pH 7.9, 100 mM NaCl, 0.05% NP-40, 0.5 mM DTT, 1 h 4°C; 1D PAGE, LC-MSMS; control mouse IgG
Settings: remark: other sources report otherwise

B1: SPF45, Q96I25 1-401 (protein)
chain: MSLYDDLGVETSDSKTEGWSKNFKLLQSQLQVKKAALTQAKSQRTKQSTVLAPVIDLKRGGSSDDRQIVDTPPHVAAGLKDPVPSGFSAGEVLIPLADEYDPMFPNDYEKVVKRQREERQRQRELERQKEIEEREKRRKDRHEASGFARRPDPDSDEDEDYERERRKRSMGGAAIAPPTSLVEKDKELPRDFPYEEDSRPRSQSSKAAIPPPVYEEQDRPRSPTGPSNSFLANMGGTVAHKIMQKYGFREGQGLGKHEQGLSTALSVEKTSKRGGKIIVGDATEKDASKKSDSNPLTEILKCPTKVVLLRNMVGAGEVDEDLEVETKEECEKYGKVGKCVIFEIPGAPDDEAVRIFLEFERVESAIKAVVDLNGRYFGGRVVKACFYNLDKFRVLDLAEQV
For B1, the binding was “binds”.
